Values from PubChem BioAssay AID504804 (Drosophila RNAi Screening Center, 2011)

Assay: 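dsRNAs that improve Kc cell survival under doxorubicin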 (primary screen)
Cells: Drosophila Kc cells
Reagents: long dsRNA against Drosophila genes, 0.5 µg dsRNA per well
Time to read-out: 96 h (48 h knock-down, then 48 h drug)
Conditions: doxorubicin 5 µg/ml for 48 h, added 48 h after dsRNA
Detection: 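Viability measured as cellular ATP by luminescence after 48 h knock-down then 48 h doxorubicin at 5 µg/ml; unnormalised plate counts for each replicate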
Reading the numbers: raw ATP luminescence: higher = more viable cells, protection from doxorubicin
Active means: 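Active when both duplicate wells lie at least 2 SD above the plate mean and protection is confirmed by rescreening and independent dsRNAs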
In all, the deposit lists about 19,000 reagents; shown is a random part of those that have a named target and a result. Of all reagents, 47 (0.25%) are marked active. 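Signals are raw, not normalised; exact z-scores behind calls not deposited; actives needed confirmation, so some wells reaching 2 SD are inactive.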 Reagents against one gene are numbered here. Names joined by + are all predicted targets of the reagent.

PpD5 (GeneID 44148) → raw ATP luminescence, replicate 1 = 69063; raw ATP luminescence, replicate 2 = 87720; activity call = inactive
CG13858 (retired record) (GeneID 50058) #1 → raw ATP luminescence, replicate 1 = 47120; raw ATP luminescence, replicate 2 = 67940; activity call = inactive
CG13858 (retired record) (GeneID 50058) #2 → raw ATP luminescence, replicate 1 = 53440; raw ATP luminescence, replicate 2 = 68700; activity call = inactive
CG13858 (retired record) (GeneID 50058) #3 → raw ATP luminescence, replicate 1 = 70420; raw ATP luminescence, replicate 2 = 81140; activity call = inactive
CG13858 (retired record) (GeneID 50058) #4 → raw ATP luminescence, replicate 1 = 73310; raw ATP luminescence, replicate 2 = 76320; activity call = inactive
Rbm13 (GeneID 31818) → raw ATP luminescence, replicate 1 = 37550; raw ATP luminescence, replicate 2 = 44040; activity call = inactive
Zip89B (GeneID 41975) → raw ATP luminescence, replicate 1 = 50620; raw ATP luminescence, replicate 2 = 64540; activity call = inactive
Dhc64C (GeneID 38580) → raw ATP luminescence, replicate 1 = 38770; raw ATP luminescence, replicate 2 = 39447; activity call = inactive
Cad86C (GeneID 41302) #1 → raw ATP luminescence, replicate 1 = 64620; raw ATP luminescence, replicate 2 = 51347; activity call = inactive
Cad86C (GeneID 41302) #2 → raw ATP luminescence, replicate 1 = 60043; raw ATP luminescence, replicate 2 = 50860; activity call = inactive
CG31741 (GeneID 35079) → raw ATP luminescence, replicate 1 = 57723; raw ATP luminescence, replicate 2 = 63220; activity call = inactive
Gapvd1 (GeneID 32070) → raw ATP luminescence, replicate 1 = 3.14e5; raw ATP luminescence, replicate 2 = 2.51e5; activity call = inactive
CG33969 + fbl → raw ATP luminescence, replicate 1 = 66613; raw ATP luminescence, replicate 2 = 61603; activity call = inactive
Ugt37A2 (GeneID 41573) → raw ATP luminescence, replicate 1 = 52153; raw ATP luminescence, replicate 2 = 55220; activity call = inactive
CG17026 (GeneID 39739) → raw ATP luminescence, replicate 1 = 86600; raw ATP luminescence, replicate 2 = 73557; activity call = inactive
CG11294 (GeneID 31807) → raw ATP luminescence, replicate 1 = 20970; raw ATP luminescence, replicate 2 = 21020; activity call = inactive
CG7737 (GeneID 36174) → raw ATP luminescence, replicate 1 = 89337; raw ATP luminescence, replicate 2 = 69610; activity call = inactive
PGRP-LA (GeneID 39062) #1 → raw ATP luminescence, replicate 1 = 68527; raw ATP luminescence, replicate 2 = 56963; activity call = inactive
PGRP-LA (GeneID 39062) #2 → raw ATP luminescence, replicate 1 = 63920; raw ATP luminescence, replicate 2 = 50967; activity call = inactive
CG14567 (GeneID 40420) → raw ATP luminescence, replicate 1 = 74180; raw ATP luminescence, replicate 2 = 77443; activity call = inactive
mRpL21 (GeneID 40091) → raw ATP luminescence, replicate 1 = 61197; raw ATP luminescence, replicate 2 = 63073; activity call = inactive
CG32066 (GeneID 39206) #1 → raw ATP luminescence, replicate 1 = 34453; raw ATP luminescence, replicate 2 = 42323; activity call = inactive
CG32066 (GeneID 39206) #2 → raw ATP luminescence, replicate 1 = 71503; raw ATP luminescence, replicate 2 = 70890; activity call = inactive
mi (GeneID 37723) → raw ATP luminescence, replicate 1 = 84433; raw ATP luminescence, replicate 2 = 51647; activity call = inactive
Fkbp14 (GeneID 37449) → raw ATP luminescence, replicate 1 = 90423; raw ATP luminescence, replicate 2 = 62737; activity call = inactive
CG34030 (GeneID 3885636) → raw ATP luminescence, replicate 1 = 2.00e5; raw ATP luminescence, replicate 2 = 1.68e5; activity call = inactive
CG12490 (GeneID 37623) → raw ATP luminescence, replicate 1 = 53677; raw ATP luminescence, replicate 2 = 59877; activity call = inactive
CG31128 (GeneID 318601) → raw ATP luminescence, replicate 1 = 2.08e5; raw ATP luminescence, replicate 2 = 2.14e5; activity call = inactive
Saysd1 (GeneID 43029) → raw ATP luminescence, replicate 1 = 75180; raw ATP luminescence, replicate 2 = 82950; activity call = inactive
amos (GeneID 35110) → raw ATP luminescence, replicate 1 = 37877; raw ATP luminescence, replicate 2 = 27557; activity call = inactive
CG11741 (GeneID 5740784) → raw ATP luminescence, replicate 1 = 57233; raw ATP luminescence, replicate 2 = 63010; activity call = inactive
CG15269 (GeneID 34887) → raw ATP luminescence, replicate 1 = 63413; raw ATP luminescence, replicate 2 = 72787; activity call = inactive
cmet (GeneID 53561) → raw ATP luminescence, replicate 1 = 35440; raw ATP luminescence, replicate 2 = 77637; activity call = inactive
lncRNA:bxd (GeneID 3772220) → raw ATP luminescence, replicate 1 = 2.27e5; raw ATP luminescence, replicate 2 = 2.03e5; activity call = inactive
CG14130 (GeneID 39335) → raw ATP luminescence, replicate 1 = 1.01e5; raw ATP luminescence, replicate 2 = 68300; activity call = inactive
Stt3B (GeneID 43005) → raw ATP luminescence, replicate 1 = 63120; raw ATP luminescence, replicate 2 = 95970; activity call = inactive
